Data as given in PubChem BioAssay AID504774 (Drosophila RNAi Screening Center, 2011).
The deposit covers about 23,000 reagents; this is an unselected part of those that have a named target and a result. 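Values are quantile-normalised luminescence on an arbitrary scale; higher means more cells surviving MMS.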 A plus sign joins genes that one reagent is predicted to hit. Further read-outs or replicates are left out here.

- Screen: 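Knock-downs that shift viability of MMS-exposed cells relative to untreated ones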 (primary screen)
- Cell system: Drosophila Kc167 cells
- Reagents: long dsRNA against Drosophila genes, about 0.25 µg dsRNA per well
- Time to read-out: about 6 days: 3 days knock-down, then 3 days with or without MMS
- Challenge: methyl methanesulphonate 0.004% (w/v) for 3 days after knock-down
- Detection: 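ATP-dependent luminescence as a measure of live cells in MMS-exposed wells, quantile normalised within each plate, with replicate values also given as a mean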
- Scale: mean viability with MMS: higher = more surviving cells after MMS

Gene,PubChem SID,mean viability with MMS
RanGAP (Ran GTPase activating protein),SID104201595,3.55e6
CG31769,SID104181153,3.52e6
Ak3 (Adenylate kinase 3),SID104195867,3.56e6
mldr (mulder),SID104197892,3.57e6
CG15734,SID104199493,3.67e6
shg (shotgun),SID104184506,3.68e6
Gr94a (Gustatory receptor 94a),SID104193389,3.35e6
CG15269,SID104181734,3.46e6
CG32388,SID104188653,3.77e6
Duox (Dual oxidase),SID104180363,3.52e6
tapas,SID104185742,3.60e6
CG5646,SID104195645,3.54e6
Sfxn2 (Sideroflexin 2),SID104190510,3.58e6
Nelf-A (Negative elongation factor A),SID104195695,3.70e6
CG13800 (retired record),SID104188126,3.61e6
S2P (site-2 protease),SID104187103,3.52e6
Parp1 (Poly-(ADP-ribose) polymerase 1),SID104187517,3.51e6
Parp1 (Poly-(ADP-ribose) polymerase 1),SID104187570,3.68e6
Parp1 (Poly-(ADP-ribose) polymerase 1),SID104187572,3.70e6
REG (Proteasome regulator gamma),SID104200065,3.39e6
NFAT (NFAT nuclear factor),SID104198783,3.28e6
NFAT (NFAT nuclear factor),SID104199185,3.50e6
CG34106,SID104181370,3.50e6
MESR4 (Misexpression suppressor of ras 4),SID104186693,3.09e6
CG34195,SID104186701,3.46e6
ldd (lipid droplet defective),SID104200350,3.52e6
ldd (lipid droplet defective),SID104202084,3.63e6
CG2616,SID104195232,3.46e6
rumi,SID104194969,3.50e6
CheA7a (Chemosensory protein A 7a),SID104197757,3.52e6
Cyp4d1 (Cytochrome P450 4d1),SID104197486,3.52e6
Cyp4d1 (Cytochrome P450 4d1),SID104198248,3.49e6
ovo,SID104197842,3.43e6
ovo,SID104198604,3.57e6
Grx5 (Glutaredoxin 5),SID104199385,3.64e6
spaw (spacewatch),SID104186616,3.49e6
CG33110,SID104194486,2.93e6
CG33110,SID104195929,3.45e6
CG3999,SID104195326,3.54e6
Met75Ca + Met75Cb,SID104189341,3.61e6
Met75Ca + Met75Cb,SID104191013,3.54e6
CG30440,SID104184567,3.60e6
CG30440,SID104184637,3.70e6
CG30440,SID104184647,3.41e6
VhaAC39-1 (Vacuolar H[+] ATPase AC39 subunit 1),SID104198034,3.49e6
CG3868,SID104190172,3.65e6
